## Primary screen of a compound library

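Whole-cell assay for inhibitors of Mycobacterium tuberculosis growth, labelled Cornell in the record; the read-out is not stated. The concentration is filed as 10 mM, unlikely as a test dose, so the dose is not known. Higher means stronger inhibition (inferred from two other growth screens of the library). About 53,000 compounds were tested under these conditions; 1.7% (about 900) showed 50% or more at least once.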

Results are given as percent effect. How 0% and 100% were set is not recorded. Most values in the screen are low, and negative values occur. The compounds are a random part of those screened.

SMILES	Percent Effect
Cc1ccc(Cl)c(CN2CCC3(CC2)C(C(=O)O)CC(=O)N3C)c1F (centres unmarked)	14.96%
COc1nc2c(cc1C(=O)NCc1nc(CSC)no1)CCC2	0.1885%
CCc1nc(CN(C)C(=O)c2ccc(OCCCOC)nc2)cs1	2.288%
CC1(C(=O)NCc2cccnc2Oc2ccc(F)cc2F)CCCNC1 (centres unmarked)	18.05%
O=C(c1ccccn1)N1CCc2ncnc(N3CCOCC3)c2CC1	-17.24%
CCN(CC)S(=O)(=O)c1ccc(CNC(=O)N2CCCCCC2)cc1	4.391%
CN1CCN(Cc2cn3c(n2)CNCC3)CC1.Cl.Cl.Cl	-79.9%
CCC(=O)c1ccc(OCC(=O)NC(C)Cc2cc(C)n[nH]2)cc1 (centres unmarked)	-3.417%
COc1ccccc1CN1CC[C@H](c2nnc(-c3cncn3C)o2)C1	-3.909%
CCNC(=O)[C@@H]1C[C@@H](N)CN1Cc1ccc(-c2ccccc2C#N)o1	33.4%
O=S(=O)(NCc1ccccc1)Nc1ccc(-n2cncn2)cc1	-59.23%
Cc1ccccc1C(C)NC(=O)CSCC#N (centres unmarked)	-4.502%
CCCn1nc2c(cc1=O)CN(Cc1nc(-c3ccoc3)no1)CC2	-56.95%
CC(C)[C@@H]1CN(Cc2ccccn2)C[C@H]1NS(=O)(=O)N(C)C	24.36%
COc1ccc(NC(=O)c2nc3ccccc3n(C)c2=O)cc1OC	-9.591%
CC(C)n1cnnc1CNC(=O)c1cnn(Cc2ccccc2)c1	-4.834%
CC(C)N(C)Cc1cn2c(n1)CN(C(=O)Cc1ccsc1)CC2.O=C(O)C(F)(F)F	33.88%
Cc1ncc(CN2CCOC(c3ccc(-c4cc[nH]n4)cn3)C2)s1 (centres unmarked)	-13.12%
[H][C@]12CC[C@@]3(N=C(c4ccccc4)NC3=O)[C@@]1([H])CN(C(=O)c1ccoc1)C2	7.782%
Cc1cc(C(=O)CN2CCN(c3ncccn3)CC2)c(C)n1C(C)C	-7.858%
NC(=O)c1ccc2c(c1)nc1n2CCN(Cc2ccccc2)C1	-59.61%
CCCN1CCC(CC(=O)N(C)C(C)c2cncs2)CC1 (centres unmarked)	17.75%
O=C(O)C(F)(F)F.[H][C@]12CO[C@@H](CNC(=O)N(C)C)[C@@]1([H])CCN(Cc1ccc(OC)cc1)C2	7.088%
CCS(=O)(=O)NCCNC(=O)N(Cc1ccc(C)o1)C(C)C	-18.27%
CC(=O)N1CCc2nnc(C3CCCCN3CC3CCCCC3)n2CC1 (centres unmarked)	-12.91%
COCc1nc(C(=O)N2CCCC2c2cc(C)on2)cs1 (centres unmarked)	-14.11%
COc1ncccc1CNC(=O)C1CC(=O)N(C)C1 (centres unmarked)	0.4102%
O=C(O)C(F)(F)F.O=C(c1ccncc1)N1CCc2ncnc(C3CC3)c2CC1	1.489%
CC(=O)NCC1CCC2(CCN(c3nccc(C4CCCC4)n3)CC2)O1 (centres unmarked)	-3.098%
NC(=O)c1ccc(CN2CCCC(O)C2)cc1 (centres unmarked)	1.13%
O=C(O)C(F)(F)F.O=C(O)C(F)(F)F.[H][C@@]12OCCC[C@]1([H])N(Cc1ccc(C)o1)C[C@@H]2N1CCOCC1	6.48%
CCCc1nc(NCCc2ccccc2)c2c(n1)c(C)nn2CC	98.38%
O=C1CC(N(C(=O)c2ccc3[nH]c4c(c3c2)CCCC4)C2CC2)C(=O)N1 (centres unmarked)	-10.27%
CC(C)CN1CCCn2nc(CNC(=O)CCCc3cn[nH]c3)cc2C1	15.36%
COCCOCC(=O)NC(C#N)c1cccc(Cl)c1Cl (centres unmarked)	13.84%
COc1ccc2c(C)c(C(=O)NC3CCCOC3)oc2c1 (centres unmarked)	22.6%
Cc1nc(NC2CCCC2)cc(C2CCN2C(=O)c2cccnc2)n1 (centres unmarked)	15.04%
O=C(NCC(F)(F)F)c1ccncc1	0.4907%
O=C(NC1CCN(c2cccc(C(F)(F)F)n2)CC1)C1CC1	5.342%
CCC1c2cccn2CCN1C(=O)c1ccc2nonc2c1 (centres unmarked)	10.7%
[H][C@]12CC[C@@]3(N=C(CC)N(C)C3=O)[C@@]1([H])CN(C(=O)NC(C)C)C2	-2.389%
CCN(CC)CCN(C)c1nc(-c2ccc(Cl)cc2)nc2c1CNC2	10.11%
CCn1cc(NC(=O)C2CCN(Cc3noc(C4CC4)n3)CC2)cn1	-19.75%
[H][C@]12CC[C@]([H])(CN(Cc3cnc(-c4cccc(OC)c4)s3)C1)N(C)C2=O	20.52%
CC(C)n1c2ccccc2c2c1cc(C(=O)N(C)C)n2S(C)(=O)=O	-17.63%
C[C@H]1CC[C@H](C(=O)N2CCC(n3cc(C4(O)CCCC4)nn3)CC2)CC1	16.07%
Cc1ccc(CN2CCn3c(CNS(C)(=O)=O)nnc3C2)s1	-9.678%
Cn1cc(-c2nc3c(cc2C(=O)O)CCN(C(=O)C2CC2)CC3)cn1.O=C(O)C(F)(F)F	18.04%
CN(C)C(=O)COCc1nnc2n1CCN(Cc1ccoc1)C2.O=C(O)C(F)(F)F	-6.409%
Cc1ccc(-c2cc(CNC(=O)N3CCOC(C)C3)on2)cc1 (centres unmarked)	21%
O=C(NC1CC1)c1cc(C2CCCN(Cc3ccccn3)C2)no1 (centres unmarked)	-16.32%

For reference, 6 entries once more:

| SMILES | Percent Effect |
|---|---|
| `CC(=O)NCC1CCC2(CCN(c3nccc(C4CCCC4)n3)CC2)O1` (centres unmarked) | -3.098% |
| `CCS(=O)(=O)NCCNC(=O)N(Cc1ccc(C)o1)C(C)C` | -18.27% |
| `COc1ccc(NC(=O)c2nc3ccccc3n(C)c2=O)cc1OC` | -9.591% |
| `CCN(CC)S(=O)(=O)c1ccc(CNC(=O)N2CCCCCC2)cc1` | 4.391% |
| `CCCn1nc2c(cc1=O)CN(Cc1nc(-c3ccoc3)no1)CC2` | -56.95% |
| `COc1nc2c(cc1C(=O)NCc1nc(CSC)no1)CCC2` | 0.1885% |

Measurements from “University of Dundee, Small-Polar-MMV Screening Library” (2021), ChEMBL document CHEMBL3988442.